Measurements: patent EP1224299B1, “RECOMBINANT PROTEINS AND PEPTIDES FOR ENDOTOXIN BIOSENSORS, ENDOTOXIN REMOVAL, AND ANTI-MICROBIAL AND ANTI-ENDOTOXIN THERAPEUTICS” (priority 1999, dated 2001)
Where two headings read alike, the source gives them in different places. Not every detail of the peptide structures is certain; ends, links or a residue may be inferred. Ends that are not written are not given here.

Tests used:
[1] = system: P. aeruginosa ATCC 27853; assay: Killing rate assay; format: cell-based; conditions: 0.06 µg/ml, initial 10^9 cfu/ml; concentration achieving MBC90
From the text: The killing rate assay was adapted from the MBC test above, with different contact time of peptides with the bacteria arrested at regular intervals and plated for colony count. An initial density of 10^9 cfu/ml was used. […] This is one of the important features of an effective therapeutic agent.

[2] = system: 30 clinical strains of P. aeruginosa; assay: Microbicidal concentration (MBC) assay, 30 clinical strains; format: cell-based; conditions: for MBC50: concentration of peptide required to kill 50% of the strains
Description: Test strains cultured on Mueller-Hinton agar (MHA, Becton Dickinson, USA) were inoculated into 10 ml Mueller-Hinton broth (MHB, Becton Dickinson, USA) and grown overnight at 37°C in a shaker incubator (Model 4536, Forma Scientific, Inc., USA) at 230 rpm. Overnight broth cultures were diluted to give a final cell density of 10^5 colony forming units/ml (cfu/ml). One hundred microliters of the bacterial suspension was dispensed into sterile polypropylene 8-strip PCR-tubes (Quality Scientific Plastics, USA). Eleven microliters of serially diluted sushi peptides, ranging in final concentrations of 0.03-4 µg/ml, were then added. The peptides were constituted at 10 times the required test concentrations in 0.01% acetic acid and 0.2% bovine serum albumin (BSA). Positive controls were cultures without test peptides. Uninoculated MHB was used as negative control. All tests were carried out in triplicate.
Cultures were incubated at 37°C for 18-24 h, with the PCR-tubes held in horizontal position and shaken at 230 rpm. Cell counts were determined by standard drop-count method. The killing efficiency for the four sushi peptides were calculated based on standard drop-count method.

Sequence	Killing rate (time to MBC90) [1] [min]	MBC90 [2] [µM]	MBC50 [2] [µg/mL]	MBC90 ([2]; concentration of peptide required to kill 90% of the strains) [µg/mL]
HAEHKVKIGVEQKYGQFPQGTEVTYTCSGNYFLM [S3]	7	0.008	≤0.03	
HAEHKVKIKVKQKYGQFPQGTEVTYTCSGNYFLM [S3Δ]	7	0.063	≤0.03	0.25
